{
  "sequences": {"note": "Amino acid sequences for entries named in this document (tags omitted).", "UniProt P63104": "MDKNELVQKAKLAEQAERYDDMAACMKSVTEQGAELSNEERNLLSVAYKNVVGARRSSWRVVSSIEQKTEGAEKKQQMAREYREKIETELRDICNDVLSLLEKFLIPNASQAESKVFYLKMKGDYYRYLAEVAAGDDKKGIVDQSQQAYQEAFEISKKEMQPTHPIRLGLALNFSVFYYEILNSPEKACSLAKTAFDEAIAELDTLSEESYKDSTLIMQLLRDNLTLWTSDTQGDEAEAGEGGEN", "UniProt Q15032": "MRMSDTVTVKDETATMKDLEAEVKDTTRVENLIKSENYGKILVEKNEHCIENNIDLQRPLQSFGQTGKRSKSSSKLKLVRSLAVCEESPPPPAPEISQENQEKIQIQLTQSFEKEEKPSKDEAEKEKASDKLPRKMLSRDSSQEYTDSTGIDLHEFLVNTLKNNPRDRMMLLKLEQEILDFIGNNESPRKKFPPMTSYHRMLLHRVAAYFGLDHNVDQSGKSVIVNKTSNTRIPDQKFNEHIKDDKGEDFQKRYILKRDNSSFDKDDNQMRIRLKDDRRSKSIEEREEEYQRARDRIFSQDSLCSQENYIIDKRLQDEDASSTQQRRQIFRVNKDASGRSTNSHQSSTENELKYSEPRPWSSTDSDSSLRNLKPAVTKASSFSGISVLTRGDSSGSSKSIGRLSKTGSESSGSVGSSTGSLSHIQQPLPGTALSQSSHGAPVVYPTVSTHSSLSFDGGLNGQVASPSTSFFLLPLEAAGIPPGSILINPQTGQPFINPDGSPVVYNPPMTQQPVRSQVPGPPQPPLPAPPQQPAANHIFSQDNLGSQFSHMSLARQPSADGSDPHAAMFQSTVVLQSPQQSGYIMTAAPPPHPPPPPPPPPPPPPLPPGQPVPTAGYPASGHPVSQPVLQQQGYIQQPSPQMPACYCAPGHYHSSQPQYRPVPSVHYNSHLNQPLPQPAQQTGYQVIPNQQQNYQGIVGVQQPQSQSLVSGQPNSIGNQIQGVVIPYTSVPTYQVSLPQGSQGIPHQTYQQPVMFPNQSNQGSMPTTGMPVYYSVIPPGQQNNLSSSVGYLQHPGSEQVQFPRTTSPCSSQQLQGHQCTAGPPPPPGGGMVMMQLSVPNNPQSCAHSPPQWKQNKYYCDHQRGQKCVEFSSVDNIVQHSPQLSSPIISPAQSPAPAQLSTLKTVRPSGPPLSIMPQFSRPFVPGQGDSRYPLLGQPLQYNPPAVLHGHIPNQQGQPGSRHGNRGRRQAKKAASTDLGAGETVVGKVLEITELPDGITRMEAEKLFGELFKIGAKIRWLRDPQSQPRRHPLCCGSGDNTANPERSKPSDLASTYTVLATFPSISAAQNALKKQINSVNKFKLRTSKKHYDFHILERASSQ"},
  "source": "paper PMC5964322",
  "biological_target": "T1, FLAG-tagged ARPP21 (mouse), expressed in HEK-293T cells (mouse) (UniProt Q9DCB4)",
  "T1 sequence": "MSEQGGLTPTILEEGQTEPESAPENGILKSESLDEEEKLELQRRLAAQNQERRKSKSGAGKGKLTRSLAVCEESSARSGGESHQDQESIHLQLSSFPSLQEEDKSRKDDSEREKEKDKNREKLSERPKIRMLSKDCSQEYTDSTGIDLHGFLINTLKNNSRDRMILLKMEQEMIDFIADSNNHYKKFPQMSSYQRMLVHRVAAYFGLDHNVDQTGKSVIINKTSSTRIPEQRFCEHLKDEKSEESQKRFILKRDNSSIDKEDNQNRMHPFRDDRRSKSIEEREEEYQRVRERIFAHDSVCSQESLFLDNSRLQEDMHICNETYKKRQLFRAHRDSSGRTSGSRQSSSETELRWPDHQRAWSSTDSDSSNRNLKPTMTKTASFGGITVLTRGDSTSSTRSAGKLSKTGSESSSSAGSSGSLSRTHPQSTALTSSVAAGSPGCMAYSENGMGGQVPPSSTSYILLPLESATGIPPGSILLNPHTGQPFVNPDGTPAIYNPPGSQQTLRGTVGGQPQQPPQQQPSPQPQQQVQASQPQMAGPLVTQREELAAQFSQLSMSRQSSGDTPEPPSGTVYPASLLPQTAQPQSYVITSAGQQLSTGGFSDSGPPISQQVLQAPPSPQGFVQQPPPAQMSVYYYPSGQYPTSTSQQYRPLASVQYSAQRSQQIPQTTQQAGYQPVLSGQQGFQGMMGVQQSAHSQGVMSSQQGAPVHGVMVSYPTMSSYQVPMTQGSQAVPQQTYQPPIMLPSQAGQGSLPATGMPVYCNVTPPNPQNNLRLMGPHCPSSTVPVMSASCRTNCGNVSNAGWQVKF",
  "assay": "affinity purification with mass spectrometry; FLAG-tagged mouse ARPP21 or R3HDM1 immunoprecipitated from transfected HEK-293T lysates after RNase digestion; interactors identified by LC-MS/MS; compared with mock-transfected cells",
  "note": "No constants are given. Whether binding was seen depends on the method and setting. Binding seen in cells or lysates may run through a third protein. Here binding means that the protein was enriched with, or labelled near, the bait; the list need not be complete. Where a sequence is shown, tags or fusion partners need not be part of it.",
  "data": [
    {"substance": "14-3-3-ζ, endogenous HEK-293T protein detected by MS (from UniProt P63104 1-245)", "values": [
      {"measurement": "binding", "value": "binds"}
    ]},
    {"substance": "R3HDM1, endogenous HEK-293T protein (from UniProt Q15032 1-1099)", "values": [
      {"measurement": "binding", "value": "binds"}
    ]},
    {"substance": "eIF4G, endogenous HEK-293T protein detected by MS (human (endogenous in HEK-293T))", "values": [
      {"measurement": "binding", "value": "binds"}
    ]},
    {"substance": "eIF4A, endogenous HEK-293T protein detected by MS (human (endogenous in HEK-293T))", "values": [
      {"measurement": "binding", "value": "binds"}
    ]}
  ]
}
